{"sequences": {"note": "Chains of the proteins cited; added tags and fusions are not shown.", "UniProt Q7Z434": "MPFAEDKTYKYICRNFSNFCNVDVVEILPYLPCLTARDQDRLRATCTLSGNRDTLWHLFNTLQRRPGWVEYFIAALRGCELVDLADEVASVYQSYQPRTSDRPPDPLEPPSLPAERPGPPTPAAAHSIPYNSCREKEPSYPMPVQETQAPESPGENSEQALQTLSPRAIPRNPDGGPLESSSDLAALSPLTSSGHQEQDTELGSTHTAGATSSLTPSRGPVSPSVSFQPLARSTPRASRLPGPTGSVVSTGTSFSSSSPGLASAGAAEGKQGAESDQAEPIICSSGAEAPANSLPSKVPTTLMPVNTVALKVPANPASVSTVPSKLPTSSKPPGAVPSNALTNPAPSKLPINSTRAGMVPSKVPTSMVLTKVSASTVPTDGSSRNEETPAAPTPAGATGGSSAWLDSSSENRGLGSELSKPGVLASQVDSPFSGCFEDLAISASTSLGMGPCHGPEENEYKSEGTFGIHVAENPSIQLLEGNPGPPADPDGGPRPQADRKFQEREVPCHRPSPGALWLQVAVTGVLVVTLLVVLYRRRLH", "UniProt O94874": "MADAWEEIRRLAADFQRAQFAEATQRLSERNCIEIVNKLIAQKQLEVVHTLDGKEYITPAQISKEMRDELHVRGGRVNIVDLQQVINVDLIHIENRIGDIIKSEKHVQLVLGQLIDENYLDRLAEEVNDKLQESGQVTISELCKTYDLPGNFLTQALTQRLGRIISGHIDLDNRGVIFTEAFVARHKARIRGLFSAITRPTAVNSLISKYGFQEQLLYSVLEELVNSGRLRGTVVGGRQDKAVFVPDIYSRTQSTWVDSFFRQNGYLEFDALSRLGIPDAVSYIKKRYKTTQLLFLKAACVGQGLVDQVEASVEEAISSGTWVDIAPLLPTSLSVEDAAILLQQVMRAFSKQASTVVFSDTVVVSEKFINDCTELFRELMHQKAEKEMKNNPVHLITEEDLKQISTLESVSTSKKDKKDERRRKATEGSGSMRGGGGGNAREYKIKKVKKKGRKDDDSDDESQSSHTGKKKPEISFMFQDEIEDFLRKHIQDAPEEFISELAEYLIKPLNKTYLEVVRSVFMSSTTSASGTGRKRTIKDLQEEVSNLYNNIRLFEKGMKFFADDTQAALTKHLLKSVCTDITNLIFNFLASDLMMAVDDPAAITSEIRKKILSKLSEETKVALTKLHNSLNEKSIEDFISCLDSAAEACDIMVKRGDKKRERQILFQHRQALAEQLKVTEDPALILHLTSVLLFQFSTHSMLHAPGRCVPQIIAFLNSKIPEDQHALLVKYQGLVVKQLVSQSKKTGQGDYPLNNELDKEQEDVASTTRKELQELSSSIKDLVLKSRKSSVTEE", "UniProt Q86VP6": "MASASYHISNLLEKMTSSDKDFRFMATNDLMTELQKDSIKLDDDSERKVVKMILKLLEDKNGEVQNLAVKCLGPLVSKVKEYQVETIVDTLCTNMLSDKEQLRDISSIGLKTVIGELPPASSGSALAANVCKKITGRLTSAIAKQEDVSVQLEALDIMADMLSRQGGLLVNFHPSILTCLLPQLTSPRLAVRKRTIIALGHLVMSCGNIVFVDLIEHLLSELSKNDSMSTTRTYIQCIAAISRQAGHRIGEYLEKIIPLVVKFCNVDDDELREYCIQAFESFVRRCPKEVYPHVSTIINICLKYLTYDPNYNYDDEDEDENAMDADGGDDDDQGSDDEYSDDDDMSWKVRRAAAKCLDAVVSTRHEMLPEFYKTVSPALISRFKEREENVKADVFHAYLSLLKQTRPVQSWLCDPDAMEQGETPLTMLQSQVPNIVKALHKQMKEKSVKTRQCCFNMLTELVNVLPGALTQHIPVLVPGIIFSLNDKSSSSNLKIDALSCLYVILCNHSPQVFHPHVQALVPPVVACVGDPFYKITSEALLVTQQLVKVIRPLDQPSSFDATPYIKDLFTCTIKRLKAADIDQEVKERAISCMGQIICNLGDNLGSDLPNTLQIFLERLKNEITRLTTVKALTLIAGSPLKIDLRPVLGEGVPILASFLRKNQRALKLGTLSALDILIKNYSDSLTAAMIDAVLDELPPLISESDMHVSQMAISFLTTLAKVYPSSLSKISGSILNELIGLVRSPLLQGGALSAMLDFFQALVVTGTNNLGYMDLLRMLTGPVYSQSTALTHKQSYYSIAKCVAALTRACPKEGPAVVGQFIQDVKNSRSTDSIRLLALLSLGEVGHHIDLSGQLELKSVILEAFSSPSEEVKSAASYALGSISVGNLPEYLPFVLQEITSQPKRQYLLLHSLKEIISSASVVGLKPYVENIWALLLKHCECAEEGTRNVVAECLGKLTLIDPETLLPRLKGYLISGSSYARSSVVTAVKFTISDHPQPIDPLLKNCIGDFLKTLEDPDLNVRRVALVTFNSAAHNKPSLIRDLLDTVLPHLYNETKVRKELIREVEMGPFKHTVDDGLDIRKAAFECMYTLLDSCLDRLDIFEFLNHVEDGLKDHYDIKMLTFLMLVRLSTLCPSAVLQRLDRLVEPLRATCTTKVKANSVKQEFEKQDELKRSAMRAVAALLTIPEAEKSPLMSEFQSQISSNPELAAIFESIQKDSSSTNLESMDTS"}, "source": "paper PMC11932694", "binders": {"B1": {"name": "ORMDL3-GFP (protein, UniProt Q8N138 1-153)", "chain": "MNVGTAHSEVNPNTRVMNSRGIWLSYVLAIGLLHIVLLSIPFVSVPVVWTLTNLIHNMGMYIFLHTVKGTPFETPDQGKARLLTHWEQMDYGVQFTASRKFLTITPIVLYFLTSFYTKYDQIHFVLNTVSLMSVLIPKLPQLHGVRIFGINKY"}}, "test_in_all_cases": "co-IP; HEK293T cells co-transfected with a Flag-tagged protein and GFP-tagged ORMDL3 (whole or truncated); lysates immunoprecipitated with anti-Flag antibody and protein A/G beads, blots with anti-GFP and anti-Flag; in Figure 5B with or without poly(I:C) co-transfection", "key": {"[1]": {"biological_target": "Flag-MAVS (UniProt Q7Z434)"}, "[2]": {"biological_target": "UFL1 (UniProt O94874)"}, "[3]": {"biological_target": "CAND1 (UniProt Q86VP6)"}, "[4]": {"biological_target": "T1, Flag-MDA5 (UniProt Q9BYX4)", "T1 sequence": "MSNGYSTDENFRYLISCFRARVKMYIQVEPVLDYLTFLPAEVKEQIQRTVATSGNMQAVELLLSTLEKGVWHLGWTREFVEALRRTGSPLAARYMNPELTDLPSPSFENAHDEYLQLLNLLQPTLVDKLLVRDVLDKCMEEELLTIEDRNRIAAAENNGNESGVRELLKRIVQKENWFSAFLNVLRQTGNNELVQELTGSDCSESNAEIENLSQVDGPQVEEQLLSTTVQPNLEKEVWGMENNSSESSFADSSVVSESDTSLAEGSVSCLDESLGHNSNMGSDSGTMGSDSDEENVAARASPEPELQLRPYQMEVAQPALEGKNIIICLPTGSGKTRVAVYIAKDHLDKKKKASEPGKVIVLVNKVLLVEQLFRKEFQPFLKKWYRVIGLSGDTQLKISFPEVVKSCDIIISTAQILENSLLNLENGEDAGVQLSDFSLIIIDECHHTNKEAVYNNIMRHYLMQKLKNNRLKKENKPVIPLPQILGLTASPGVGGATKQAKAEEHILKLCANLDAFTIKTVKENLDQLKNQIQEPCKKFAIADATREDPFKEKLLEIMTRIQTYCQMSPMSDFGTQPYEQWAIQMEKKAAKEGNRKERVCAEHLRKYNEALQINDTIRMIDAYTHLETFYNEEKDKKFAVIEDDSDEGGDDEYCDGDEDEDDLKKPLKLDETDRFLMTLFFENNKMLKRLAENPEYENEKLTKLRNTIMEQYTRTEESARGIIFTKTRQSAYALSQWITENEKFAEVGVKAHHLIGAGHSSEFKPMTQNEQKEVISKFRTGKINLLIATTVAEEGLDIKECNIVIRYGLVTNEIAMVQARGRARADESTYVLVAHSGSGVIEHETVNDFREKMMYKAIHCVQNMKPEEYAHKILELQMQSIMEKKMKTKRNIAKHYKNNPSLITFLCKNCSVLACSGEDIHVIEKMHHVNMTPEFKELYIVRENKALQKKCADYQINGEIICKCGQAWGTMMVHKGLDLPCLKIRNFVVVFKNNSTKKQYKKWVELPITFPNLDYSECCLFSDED"}, "[5]": {"biological_target": "T2, Flag-TBK1 (UniProt Q9UHD2)", "T2 sequence": "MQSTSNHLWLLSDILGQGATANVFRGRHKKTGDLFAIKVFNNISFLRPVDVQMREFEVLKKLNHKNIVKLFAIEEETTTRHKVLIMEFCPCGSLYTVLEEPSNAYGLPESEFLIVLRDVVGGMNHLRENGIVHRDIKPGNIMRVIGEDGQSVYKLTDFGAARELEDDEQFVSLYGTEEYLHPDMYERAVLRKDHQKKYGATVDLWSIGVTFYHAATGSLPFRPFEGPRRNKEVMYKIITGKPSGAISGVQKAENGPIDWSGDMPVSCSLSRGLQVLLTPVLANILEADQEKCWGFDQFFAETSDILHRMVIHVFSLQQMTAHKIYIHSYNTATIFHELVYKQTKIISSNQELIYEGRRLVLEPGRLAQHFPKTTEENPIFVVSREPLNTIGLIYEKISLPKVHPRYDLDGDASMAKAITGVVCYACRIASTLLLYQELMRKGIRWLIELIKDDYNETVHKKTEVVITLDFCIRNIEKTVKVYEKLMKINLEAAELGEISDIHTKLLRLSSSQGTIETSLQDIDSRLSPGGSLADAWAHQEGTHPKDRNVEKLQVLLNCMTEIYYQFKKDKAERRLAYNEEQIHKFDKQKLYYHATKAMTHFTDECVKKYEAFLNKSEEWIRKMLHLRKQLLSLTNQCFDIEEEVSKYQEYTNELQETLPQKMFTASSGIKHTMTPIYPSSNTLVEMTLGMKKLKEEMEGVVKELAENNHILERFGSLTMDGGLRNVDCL"}}, "note": "No constants are given. Whether binding was seen depends on the method and setting. Binding seen in cells or lysates may run through a third protein. Some results given as binding are weak or reduced against the parent protein; the word gives no strength. Where a sequence is shown, tags or fusion partners need not be part of it."}
{"binder": "B1", "values": [{"measurement": "binding", "setting": "[1]", "value": "binds"}, {"measurement": "binding", "setting": "[2]", "value": "no binding"}, {"measurement": "binding", "setting": "[3]", "value": "no binding"}, {"measurement": "binding", "setting": "[4]", "value": "no binding"}, {"measurement": "binding", "setting": "[5]", "value": "no binding"}]}
